# Test results from article PMC3335779.
# T1: secreted protein acidic and rich in cysteine (SPARC) (mouse (endogenous in murine eyes)) (UniProt P07214)
# T1 sequence: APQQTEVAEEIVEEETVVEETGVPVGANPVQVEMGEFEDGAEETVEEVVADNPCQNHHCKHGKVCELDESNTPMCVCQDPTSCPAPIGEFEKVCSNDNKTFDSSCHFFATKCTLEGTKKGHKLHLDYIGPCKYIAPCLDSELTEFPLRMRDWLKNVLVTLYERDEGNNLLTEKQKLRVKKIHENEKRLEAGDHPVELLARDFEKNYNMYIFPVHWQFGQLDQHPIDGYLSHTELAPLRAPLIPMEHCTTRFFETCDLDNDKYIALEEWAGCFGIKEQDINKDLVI
# Columns and labels:
# [1] = target: T1, secreted protein acidic and rich in cysteine (SPARC) (mouse (endogenous in murine eyes)); experiment: co-IP; mouse eye lysate in IP buffer (0.1% SDS, 0.5% sodium deoxycholate, protease inhibitors); antibody (anti-Pax6, anti-TGF-β or anti-SPARC) on protein-G resin, 60 min at 4 °C with lysate; immunoblot with ECL detection; negative control: protein-G slurry without primary antibody
# [2] = target: transforming growth factor-beta (TGF-β) (mouse (endogenous in murine eyes)); experiment: as above
binding [1],binding [2],Molecule
binds,–,transforming growth factor-beta (TGF-β) (mouse (endogenous in murine eyes))
–,binds,"secreted protein acidic and rich in cysteine (SPARC) (protein, UniProt P07214 18-302) APQQTEVAEEIVEEETVVEETGVPVGANPVQVEMGEFEDGAEETVEEVVADNPCQNHHCKHGKVCELDESNTPMCVCQDPTSCPAPIGEFEKVCSNDNKTFDSSCHFFATKCTLEGTKKGHKLHLDYIGPCKYIAPCLDSELTEFPLRMRDWLKNVLVTLYERDEGNNLLTEKQKLRVKKIHENEKRLEAGDHPVELLARDFEKNYNMYIFPVHWQFGQLDQHPIDGYLSHTELAPLRAPLIPMEHCTTRFFETCDLDNDKYIALEEWAGCFGIKEQDINKDLVI"

# No constants are given. Whether binding was seen depends on the method and setting. Binding seen in cells or lysates may run through a third protein. Binding can be weak; no strength is given.
